The results in this text go back to publication doi:10.1101/2025.02.21.639444.

This assay deals with T1, GFP-ATG8a (UniProt Q8LEM4).
T1 sequence: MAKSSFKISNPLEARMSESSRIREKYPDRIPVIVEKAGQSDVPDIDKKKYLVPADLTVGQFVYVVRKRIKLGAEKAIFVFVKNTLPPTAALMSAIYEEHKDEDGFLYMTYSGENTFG
The assay can be described thus: co-IP.

These are yes or no findings as the source states them, for the method shown. Binding seen in cells or lysates may run through a third protein. Tags and fused reporters may be left off the sequences shown.

Take MELFALLIKVAGLLATVTVGANVVSYSRFRR (domain or fragment, UniProt Q93Y07 1-31) [SNT-BFP]: the binding result is recorded as “no binding”.
